Measured values as given in PubChem BioAssay AID1498 (National Center for Advancing Translational Sciences (NCATS), 2009).
Some of the results follow. The main result of the screen is listed elsewhere. These columns were measured beside it and carry no call. The list favours compounds with an active or inconclusive main result. Potencies come from curve fits of mixed quality, noted in brackets.

Assay: Confirmation Concentration-Response Assay for Modulators of Lamin A Splicing
Conditions: HeLa lamin A splicing GFP/RFP minigene, Acumen, 48 h; for ratio activity: GFP/RFP ratio at top concentration; for ratio activity / RFP activity: at 46.1 µM; for RFP activity: RFP channel at top concentration
From the text: NCGC Assay Overview: Hutchinson-Gilford Progeria Syndrome (HGPS) is a pediatric premature aging disease caused by a spontaneous mutation in the lamin A/C (LMNA) gene. The mutation activates a cryptic splice site in the LMNA pre-mRNA which results in production of a pre-lamin A protein that cannot be processed properly. The mutant protein accumulates in the nucleus and negatively affects numerous cellular functions. Correction of the splicing defect in HGPS patient cells using a targeted oligonucleotide (exo11) leads to reversal of the cellular disease phenotypes. To identify small molecule modulators of aberrant LMNA splicing, a homogenous assay was constructed in HeLa cells that used a GFP containing minigene to report on correction of aberrant splicing in lamin A and a RFP (DsRed2) to report on cell viability, uniformity and nonspecific effects on the assay signal. This assay was adapted to laser-scanning microplate cytometry (Acumen, TTP Labtech) where miniaturization of the assay to a 1,536-well plate format was possible. Select compounds active in the primary screen (AID 1487) were chosen for confirmation based on potency, efficacy, SAR and activity in other assays in PubChem and at NCGC. References: Bowen, W. P.; Wylie, P. G. Application of Laser-Scanning Fluorescence Microplate Cytometry in High Content Screening. Assay Drug Dev Technol 2006;4:209-221. Scaffidi P, Misteli T. Reversal of the cellular phenotype in the premature aging disease Hutchinson-Gilford progeria syndrome. Nat. Med. 2005;11:440-445.
NCGC Assay Protocol Summary: Reagents/Controls: Stable clones expressing DsRed2 and lamin A-EGFP were generated by Cell and Molecular Technologies in S3 HeLa cells. HeLa cells were prepared for the assay when they were 70-90% confluent. The cells were counted and resuspended in Opti-MEM I (no phenol red; Gibco), 2% FBS, 1% penicillin/ streptomycin (Gibco) at concentration of 120 cells/uL concentration. The suspension was passed through a Falcon basket filter with pore size 40um (Beckton Dickson). Control titrations: column […] 1536-well plate contained a sixteen point titration (1:2 dilutions) in duplicate of ancitabine (Sigma: A8598) beginning at 40 uM final concentration. Column 2 contained a sixteen point titration (1:2 dilutions) of cycloheximide beginning at 1.4 mM final concentration. Column 3 contained ancitabine at 40 uM and column 4 contained was the vehicle control (0.5% DMSO final concentration). Assay Steps: 5 uL of HeLa cells were plated in Aurora LoBase black clear bottom (cyclic-olefin polymer) 1536-well plates at a final density of 600 cells/well. Controls and library compounds were added with a 1536-well pin array using the Kalypsys pin-tool. The plates were then incubated for 48 hrs in a cell-culture incubator (37 °C; 5% CO2, 98% humidity). Following incubation the plates were read on the Acumen Explorer using the 488 nm laser. Data was collected on objects between 10 and 100 um in size. Cell objects were defined by a 15 um width x 10 um depth filter. The ratio of the total object intensity in PMT1 (500-530 nm emission; GFP) over PMT3 (575-640 nm emission; RFP) was calculated for analysis. Keywords: NIH Roadmap, MLSCN, MLI, MLSMR, qHTS, NCGC, lamin A, Progeria, RNA splicing.

[1] = measured here: GFP/RFP ratio splicing readout
[2] = measured here: RFP viability/nonspecific counter channel

Structure (SMILES)	ratio activity [%]	RFP activity [%]	AC50 [1]	AC50 [2]
NC(=O)c1cn(C2OC(CO)C(O)C2O)c2ncnc(N)c12 (configuration not stated)	-35.6	-91.7	0.708 µM [falling, full curve, poor fit]	
CC(C)c1oc(=O)cc2c1[C@@H](O)[C@H]1OC(=O)[C@@]3(C)C[C@@H](O)[C@@H](O)[C@@]2(C)C13 (some centres not stated)	-40.9	-75.4	7.94 µM [falling, full curve, poor fit]	15.8 µM [falling, full curve, poor fit]
O=C(O)c1ccccc1-c1c2cc(Br)c(=O)cc-2oc2[c]([Hg])c(O)c(Br)cc12	-100	-100	7.94 µM [rising, full curve]	3.98 µM [falling, full curve]
CC1CC(C)C(=O)[C@H](C(O)CC2CC(=O)NC(=O)C2)C1 (some centres not stated)	-37.2	-97.1	0.1 µM [falling, full curve]	5.01 µM [falling, full curve]
COc1cc(OC)c(/C=C2/C(=O)Nc3ccccc32)c(OC)c1	-36.4	-20.8	12.6 µM [falling, partial curve, poor fit]	8.91 µM [falling, full curve, poor fit]
C[C@@H]1O[C@@H](O[C@H]2C[C@@H](O)[C@]3(CO)[C@@H]4C(CC[C@]3(O)C2)[C@@]2(O)CC[C@H](C3=CC(=O)OC3)[C@@]2(C)C[C@H]4O)[C@H](O)[C@H](O)[C@H]1O (some centres not stated)	-50	-5.97	0.316 µM [falling, full curve]	
